The source of these data is patent publication US20120202233A1.

The target in test [1] is T1, FLAG-KSR (wild-type KSR1) (mouse) (UniProt Q61097).
T1 sequence (looked up): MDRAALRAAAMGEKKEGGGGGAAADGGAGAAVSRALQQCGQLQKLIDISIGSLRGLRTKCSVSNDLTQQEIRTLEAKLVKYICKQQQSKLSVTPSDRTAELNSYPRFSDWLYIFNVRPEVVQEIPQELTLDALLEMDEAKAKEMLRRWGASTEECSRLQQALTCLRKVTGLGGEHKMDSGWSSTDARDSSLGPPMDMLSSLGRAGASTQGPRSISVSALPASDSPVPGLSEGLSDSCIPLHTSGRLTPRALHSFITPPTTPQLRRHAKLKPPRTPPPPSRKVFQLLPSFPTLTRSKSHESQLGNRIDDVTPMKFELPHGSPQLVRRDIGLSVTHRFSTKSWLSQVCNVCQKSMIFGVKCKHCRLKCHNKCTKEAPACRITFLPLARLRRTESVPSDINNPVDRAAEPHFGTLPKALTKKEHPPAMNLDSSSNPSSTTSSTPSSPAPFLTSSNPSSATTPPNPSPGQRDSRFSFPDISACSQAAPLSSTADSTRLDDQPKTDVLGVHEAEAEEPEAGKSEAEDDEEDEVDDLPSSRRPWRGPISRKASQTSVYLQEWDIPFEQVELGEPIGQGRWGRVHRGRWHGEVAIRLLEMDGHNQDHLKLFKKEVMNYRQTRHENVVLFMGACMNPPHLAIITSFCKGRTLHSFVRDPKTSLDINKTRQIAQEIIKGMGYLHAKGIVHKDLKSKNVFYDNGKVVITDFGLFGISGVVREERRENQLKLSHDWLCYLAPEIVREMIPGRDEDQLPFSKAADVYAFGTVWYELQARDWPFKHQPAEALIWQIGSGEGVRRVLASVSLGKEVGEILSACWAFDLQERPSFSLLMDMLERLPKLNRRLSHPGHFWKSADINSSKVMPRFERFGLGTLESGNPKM
Description: co-immunoprecipitation with wild-type FLAG-KSR; basal dimers of wild-type BRAF as the reference (FIG. 4B).

The target of test [2] is T1, FLAG-KSR (wild-type KSR1) (mouse). Description: co-immunoprecipitation with wild-type FLAG-KSR (FIG. 4B).
Test [3] deals with BRAF (wild type) (Homo sapiens (Human)) (UniProt P15056). Nature of the test: co-immunoprecipitation: FLAG-KSR IP, BRAF blot; wild type as the reference (FIG. 2G).
Test [4] deals with myc-CRAF (wild type) (Homo sapiens (Human)) (UniProt P04049). Nature of the test: co-immunoprecipitation: FLAG-KSR IP, myc blot; cells treated with drug for 1 hour (FIG. 1C).
The target is the same in test [5]. Description: co-immunoprecipitation after GDC0879 or PLX4720 treatment (FIG. 1C).
Test [6] has as its target BRAF (wild type) (Homo sapiens (Human)) (UniProt P15056). Description: co-immunoprecipitation after GDC0879 or PLX4720 treatment (FIG. 1B).
For test [7] the target is unchanged. Nature of the test: co-immunoprecipitation: KSR IP, BRAF blot; cells treated with drug for 1 hour (FIG. 1B).

No constants are given. Whether binding was seen depends on the method and setting. Binding seen in cells or lysates may run through a third protein. Some binding calls cover weakened binding; strength is not graded here. For some of these results: Where a sequence is shown, tags or fusion partners need not be part of it.

With “BRAF (wild type) (from UniProt P15056 1-766) (enzyme)”, the binding entry in test [1] was “binds”.
Turning to “BRAF A481F (from UniProt P15056 1-766) (enzyme)”, the binding entry in test [2] is on record as “binds”.
As to “FLAG-KSR (wild-type KSR1) (from UniProt Q61097 1-873) (enzyme)”, the binding entry in test [3], in test [4], in test [5], in test [6] and in test [7] was “binds” in each case.
